Bridge positions count the residues as written; N and C are the ends. Square brackets hold non-standard residues; d marks the D form. S5 = C=CCCC[C@](C)(N)C(=O)O; Nle = CCCC[C@H](N)C(=O)O
Assay: general procedure: Fmoc solid-phase peptide synthesis; Rink amide resin, 0.37 mmol/g; HCTU/DIPEA
Details: whole synthesis, LC-MS characterisation

H-E[S5]LKK[S5]K[Nle]KLGTA-NH2 (staple 2-6; N-terminus assumed; SMILES CCCC[C@H](NC(=O)[C@H](CCCCN)NC(=O)[C@]1(C)CCCC=CCCC[C@](C)(NC(=O)[C@@H](N)CCC(=O)O)C(=O)N[C@@H](CC(C)C)C(=O)N[C@@H](CCCCN)C(=O)N[C@@H](CCCCN)C(=O)N1)C(=O)N[C@@H](CCCCN)C(=O)N[C@@H](CC(C)C)C(=O)NCC(=O)N[C@H](C(=O)N[C@@H](C)C(N)=O)[C@@H](C)O)
final HPLC purity: 98.4%

— patent US12077608B2 (H. LEE MOFFITT CANCER CENTER AND RESEARCH INSTITUTE, INC., priority 2018, dated 2024)
